Consider 34 compounds from PubChem BioAssay AID651900 (Broad Institute, 2012).

Some of the results follow. The main result of the screen is listed elsewhere. These columns were measured beside it and carry no call.

This assay can be described thus: cytotoxicity in NIH3T3 fibroblasts, dose response, cytotoxicity control, cell-based, plate reader, cherry-pick, two tests (AID 651900). The conditions noted are these: test 2 concentration series, at 26 µM.
`Cc1c(OC(C)C(=O)NCc2ccccn2)ccc2c3c(c(=O)oc12)CCC3` (centres undefined): the activity is -2.84%. Under `CCOCCCNC(=O)CSc1nc2nc(C)c(Cc3ccccc3)c(C)n2n1` stands -10.1%.

For `CC1=CC2=NC(=O)/C(=C\c3cc(C)n(-c4ccccc4F)c3C)C(=N)N2O1`, the activity was -0.896%. Consider `COc1ccc(NC(=O)c2cnc(C)cn2)cc1-n1cnnn1`, for which the activity is 7.84%. To `O=C(COc1ccc2ccc(=O)oc2c1)N1CCN(c2ccc(F)cc2)CC1` belongs -7.76%; to `CCOc1ccc(CCNC(=O)c2cnc(C)cn2)cc1OCC`, 5.77%; to `CC(=O)c1ccc(N2CCN(C(=O)c3ccc(Br)cc3)CC2)c(F)c1`, 2.12%. Under `CC(C)n1c(N2CCN(C(=O)c3cccs3)CC2)nc2ccccc21` stands 2.83%; under `COc1ccc(C(=O)C2CCCN(C(=O)c3ccc(C(C)=O)s3)C2)c(C)c1` (centres undefined), -7.65%; under `CCN(CC)CCNC(=O)c1cn(CC)c2ccc(S(=O)(=O)N3CCc4ccccc4C3)cc2c1=O`, 0.107%. To `O=C(CSc1nc2c(c(=O)n1-c1ccc(Cl)cc1)SCC2)N1CCOCC1` belongs -3.89%; to `Cc1cnc(C(=O)NC2CC(C)(C)Cc3c2cnn3-c2cccc(F)c2)cn1` (centres undefined), 2.96%; to `CC(=O)Nc1ccc2nc(-c3cccnc3)[nH]c2c1`, 2.57%. As to `CC(C)(C)c1cc(C(=O)Nc2cccnc2)cc(C(=O)Nc2cccnc2)c1`, the activity came to 7.7%. Under `O=C(Nc1ncc2c(n1)CC(c1cccc(Cl)c1)CC2=O)c1ccco1` (centres undefined) stands 0.5%; under `COc1ccc(-c2n[nH]c3c2CN(C(=O)c2ccc(OC)c(OC)c2)CC3)cc1`, 6.6%; under `CCOC(=O)CNC(=O)c1sc2ncnc(N3CCc4ccccc4C3)c2c1C`, 4.25%. Under `CC(Oc1ccc2ccc(=O)oc2c1)C(=O)N1CCOCC1` (centres undefined) stands -8.9%; under `COc1ccc(Nc2c(-c3ccc(OC)cc3)nc3cnccn23)cc1`, 1.26%; under `COc1cc2cnc(-c3cccnc3)cc2cc1OC`, -0.533%. To `Cc1cc(C(=O)CSc2nncs2)c(C)n1-c1ccc2c(c1)OCO2` belongs -5.76%; to `O=C(Nc1cccnc1)c1ccc(N2CCCC2)c([N+](=O)[O-])c1`, 0.919%; to `Cc1nc2nc(SCC(=O)N3CCOCC3)nn2c(C)c1Cc1c(F)cccc1Cl`, -13.1%. Turning to `CCOc1ccc(C(=O)Nc2cc3c(cc2N2CCCC2)n(CC)c(=O)n3CC)cc1OCC`, the activity was -13.7%.

Turning to `Nn1c(SC/C=C/c2ccccc2)nnc1-c1cccnc1`, the activity stood at 11.5%. To `COc1ccc(NC(=O)c2ccc(Cl)nc2)cc1S(=O)(=O)N1CCOCC1` belongs -4.21%; to `Cc1cc(/C=C(/C#N)C(=O)Nc2ccccc2)c(C)n1-c1cccnc1`, -0.912%; to `COc1cc(C(=O)N2Cc3cc4ccccc4nc3C2C)cc(OC)c1OC` (centres undefined), 7.18%. To `O=C(C[n+]1cc(-c2ccc(Cl)cc2)n2c1CCC2)N1c2ccccc2Sc2ccccc21` belongs 0.066%; to `O=C1CCCc2c1cc(C(=O)NCc1ccco1)c(=O)n2-c1ccc(Cl)cc1`, 1.95%; to `O=C(Nc1ccc2nccnc2c1)c1cnccn1`, -1.65%. To `CCOC(=O)C1(CCc2ccccc2)CCN(C(=O)CN2CCOC2=O)CC1` belongs 8.7%; to `COc1ccc(C2c3c(oc4ccc(Cl)cc4c3=O)C(=O)N2CCN2CCOCC2)cc1` (centres undefined), 5.86%. Consider `Cc1nn(CCC(=O)O)c2nc(-c3cccnc3)cc(C(F)(F)F)c12`, for which the activity is -0.527%.
